Measured values from article PMC7914569.
No constants are given. Whether binding was seen depends on the method and setting. For part of these data: In cells and extracts the contact can be indirect. Some binding calls cover weakened binding; strength is not graded here.

The chains behind the UniProt entries cited, without tags or fusion partners. Residues count along the entry.
UniProt P13473, residues 29-410: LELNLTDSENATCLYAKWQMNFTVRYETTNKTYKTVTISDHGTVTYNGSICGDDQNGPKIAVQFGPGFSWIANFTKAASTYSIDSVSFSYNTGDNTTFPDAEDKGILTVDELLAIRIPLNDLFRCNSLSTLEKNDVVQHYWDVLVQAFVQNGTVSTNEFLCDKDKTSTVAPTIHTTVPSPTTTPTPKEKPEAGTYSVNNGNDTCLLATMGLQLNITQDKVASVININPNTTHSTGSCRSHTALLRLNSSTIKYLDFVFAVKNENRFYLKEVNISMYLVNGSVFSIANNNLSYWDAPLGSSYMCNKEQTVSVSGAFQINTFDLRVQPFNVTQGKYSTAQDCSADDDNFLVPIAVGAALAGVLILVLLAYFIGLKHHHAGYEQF
UniProt P35869, residues 11-848: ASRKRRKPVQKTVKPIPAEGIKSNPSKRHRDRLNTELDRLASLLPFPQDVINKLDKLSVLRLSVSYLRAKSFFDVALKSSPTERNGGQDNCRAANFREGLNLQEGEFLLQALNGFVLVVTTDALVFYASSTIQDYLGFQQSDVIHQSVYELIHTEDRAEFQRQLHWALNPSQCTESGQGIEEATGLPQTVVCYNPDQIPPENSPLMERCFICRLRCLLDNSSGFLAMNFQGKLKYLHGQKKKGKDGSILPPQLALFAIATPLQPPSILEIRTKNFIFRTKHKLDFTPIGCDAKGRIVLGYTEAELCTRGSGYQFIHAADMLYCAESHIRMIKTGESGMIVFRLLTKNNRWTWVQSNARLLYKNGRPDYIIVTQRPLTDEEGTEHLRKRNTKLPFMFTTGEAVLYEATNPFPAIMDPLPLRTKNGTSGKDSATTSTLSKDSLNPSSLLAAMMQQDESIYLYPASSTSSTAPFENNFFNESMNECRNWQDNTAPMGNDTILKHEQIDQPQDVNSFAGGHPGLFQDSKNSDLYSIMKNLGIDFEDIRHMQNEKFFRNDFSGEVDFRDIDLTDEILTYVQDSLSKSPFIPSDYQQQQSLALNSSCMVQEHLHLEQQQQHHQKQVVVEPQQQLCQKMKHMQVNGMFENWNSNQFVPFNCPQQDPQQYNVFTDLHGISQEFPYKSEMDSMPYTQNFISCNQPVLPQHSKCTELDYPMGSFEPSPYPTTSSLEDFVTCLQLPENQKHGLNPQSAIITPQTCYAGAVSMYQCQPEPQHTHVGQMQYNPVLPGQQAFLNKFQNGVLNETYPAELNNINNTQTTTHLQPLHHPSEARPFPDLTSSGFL
UniProt P04406: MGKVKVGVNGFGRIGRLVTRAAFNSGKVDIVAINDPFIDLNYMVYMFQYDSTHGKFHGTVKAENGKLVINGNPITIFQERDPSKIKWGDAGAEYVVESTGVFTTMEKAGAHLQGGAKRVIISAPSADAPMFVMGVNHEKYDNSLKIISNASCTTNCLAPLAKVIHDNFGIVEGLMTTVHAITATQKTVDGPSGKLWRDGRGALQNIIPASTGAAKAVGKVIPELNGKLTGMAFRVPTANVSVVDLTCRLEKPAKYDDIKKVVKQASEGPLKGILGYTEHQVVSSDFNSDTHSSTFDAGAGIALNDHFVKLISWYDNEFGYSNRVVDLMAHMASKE
UniProt P27540: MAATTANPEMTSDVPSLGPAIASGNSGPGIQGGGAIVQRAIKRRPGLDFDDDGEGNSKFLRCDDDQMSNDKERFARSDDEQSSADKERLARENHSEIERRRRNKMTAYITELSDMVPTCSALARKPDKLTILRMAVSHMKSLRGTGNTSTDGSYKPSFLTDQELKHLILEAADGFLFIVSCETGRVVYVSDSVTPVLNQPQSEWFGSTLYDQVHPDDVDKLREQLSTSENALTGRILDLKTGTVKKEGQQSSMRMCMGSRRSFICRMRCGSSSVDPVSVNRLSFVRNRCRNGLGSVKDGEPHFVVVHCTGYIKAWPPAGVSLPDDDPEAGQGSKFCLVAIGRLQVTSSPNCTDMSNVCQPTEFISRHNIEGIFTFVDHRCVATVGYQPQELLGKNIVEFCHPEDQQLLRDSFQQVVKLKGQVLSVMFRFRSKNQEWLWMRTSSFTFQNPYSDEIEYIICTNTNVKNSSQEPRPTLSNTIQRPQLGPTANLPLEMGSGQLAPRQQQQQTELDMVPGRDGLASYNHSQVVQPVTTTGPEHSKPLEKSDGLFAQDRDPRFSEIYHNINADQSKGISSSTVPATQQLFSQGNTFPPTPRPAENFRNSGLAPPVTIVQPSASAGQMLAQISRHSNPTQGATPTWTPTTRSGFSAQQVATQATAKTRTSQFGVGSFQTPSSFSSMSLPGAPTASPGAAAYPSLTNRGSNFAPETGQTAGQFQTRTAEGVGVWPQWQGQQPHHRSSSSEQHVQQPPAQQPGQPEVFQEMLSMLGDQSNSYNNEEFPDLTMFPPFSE
UniProt P11142: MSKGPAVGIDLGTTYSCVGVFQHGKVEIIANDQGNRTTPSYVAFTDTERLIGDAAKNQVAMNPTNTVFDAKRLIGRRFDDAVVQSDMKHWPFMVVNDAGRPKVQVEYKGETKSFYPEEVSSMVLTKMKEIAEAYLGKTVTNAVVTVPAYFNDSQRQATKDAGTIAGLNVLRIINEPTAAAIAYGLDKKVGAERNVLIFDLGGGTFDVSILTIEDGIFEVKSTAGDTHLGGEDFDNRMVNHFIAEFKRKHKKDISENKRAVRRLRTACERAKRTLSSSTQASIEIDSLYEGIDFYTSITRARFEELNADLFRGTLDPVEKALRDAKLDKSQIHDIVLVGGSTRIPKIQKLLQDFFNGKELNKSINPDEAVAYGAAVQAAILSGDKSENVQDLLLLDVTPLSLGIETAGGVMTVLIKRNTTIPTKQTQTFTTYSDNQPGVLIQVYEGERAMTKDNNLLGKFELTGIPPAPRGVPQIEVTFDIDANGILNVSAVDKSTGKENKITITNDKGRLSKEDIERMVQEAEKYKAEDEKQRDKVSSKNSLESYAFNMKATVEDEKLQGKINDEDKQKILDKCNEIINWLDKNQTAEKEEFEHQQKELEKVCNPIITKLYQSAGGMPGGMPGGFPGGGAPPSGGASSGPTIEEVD

Legend:
[1] = biological target: lysosomal associated membrane protein 2A (human (endogenous in MDA-MB-468)) (UniProt P13473); test: proximity ligation; Duolink Reagents Red; MDA-MB-468 cells fixed and permeabilized with cold methanol; cells treated with 10 μM Q18 (8 h), 10 μM 6-AN (24 h) or HBSS (48 h)
[2] = biological target: Pichia-expressed human AHR (human) (UniProt P35869); test: native gel or EMSA; AHR (2 μL), ARNT (0.5 μL) and p23 (1 μL) in HEDG with 10 μM βNF, then dIdC (3 μg) and DRE-IRD700 (0.5 pmol); AHR/ARNT/DRE gel shift complex; both purified
[3] = biological target: lysosomal associated membrane protein 2A (human (endogenous in MDA-MB-468)) (UniProt P13473); test: condition: only cells treated with 1 μg/mL of GA for 24 h; proximity ligation; Duolink Reagents Red; MDA-MB-468 cells fixed and permeabilized with cold methanol; cells treated with 1 μg/mL of GA for 24 h
[4] = biological target: lysosomal associated membrane protein 2A (human (endogenous in MDA-MB-468)) (UniProt P13473); test: co-IP; 2 mg whole cell lysates of MDA-MB-468 cells treated with 10 μM Q18 (0, 4, 8 h) or DMSO or 10 μM 6-AN (24 h); anti-AHR SA-210 or anti-LAMP2 antibody on protein G magnetic beads, overnight at 4 °C; washed with HEDG containing 150 mM NaCl and 0.05–0.1% Tween-20; Western blot
[5] = biological target: aryl hydrocarbon receptor (human (endogenous in MDA-MB-468)) (UniProt P35869); test: as above

Substance: GAPDH (from UniProt P04406 1-335)
- binding [1]: binds

Substance: Pichia-expressed human aryl hydrocarbon receptor nuclear translocator (from UniProt P27540 1-789)
- binding [2]: binds

Substance: aryl hydrocarbon receptor (from UniProt P35869 11-848)
- binding [1]: binds
- binding [3]: no binding
- binding [4]: binds

Substance: heat shock cognate protein 70 (from UniProt P11142 1-646)
- binding [5]: binds
